Results taken from publication doi:10.1101/2021.06.11.448082.
These are yes or no findings as the source states them, for the method shown. Binding seen in cells or lysates may run through a third protein. These calls come from enrichment with a bait or labelling near it, and not all partners need be listed.

Chains of the proteins cited; added tags and fusions are not shown.
UniProt P35637: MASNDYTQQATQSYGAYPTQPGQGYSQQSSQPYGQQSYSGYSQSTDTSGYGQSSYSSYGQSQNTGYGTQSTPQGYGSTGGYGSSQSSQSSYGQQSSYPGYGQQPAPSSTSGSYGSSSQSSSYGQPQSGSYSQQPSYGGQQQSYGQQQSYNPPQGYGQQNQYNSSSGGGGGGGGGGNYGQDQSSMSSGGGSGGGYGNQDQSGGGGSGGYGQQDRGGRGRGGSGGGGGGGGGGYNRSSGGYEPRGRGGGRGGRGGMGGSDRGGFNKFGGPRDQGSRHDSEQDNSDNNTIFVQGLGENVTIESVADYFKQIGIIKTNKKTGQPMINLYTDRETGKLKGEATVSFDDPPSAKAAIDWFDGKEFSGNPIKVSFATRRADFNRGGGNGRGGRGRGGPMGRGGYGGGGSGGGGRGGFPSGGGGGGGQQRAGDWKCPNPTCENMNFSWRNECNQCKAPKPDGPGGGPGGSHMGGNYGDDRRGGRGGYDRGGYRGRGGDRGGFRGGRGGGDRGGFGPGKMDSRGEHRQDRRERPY
UniProt Q9UHV7: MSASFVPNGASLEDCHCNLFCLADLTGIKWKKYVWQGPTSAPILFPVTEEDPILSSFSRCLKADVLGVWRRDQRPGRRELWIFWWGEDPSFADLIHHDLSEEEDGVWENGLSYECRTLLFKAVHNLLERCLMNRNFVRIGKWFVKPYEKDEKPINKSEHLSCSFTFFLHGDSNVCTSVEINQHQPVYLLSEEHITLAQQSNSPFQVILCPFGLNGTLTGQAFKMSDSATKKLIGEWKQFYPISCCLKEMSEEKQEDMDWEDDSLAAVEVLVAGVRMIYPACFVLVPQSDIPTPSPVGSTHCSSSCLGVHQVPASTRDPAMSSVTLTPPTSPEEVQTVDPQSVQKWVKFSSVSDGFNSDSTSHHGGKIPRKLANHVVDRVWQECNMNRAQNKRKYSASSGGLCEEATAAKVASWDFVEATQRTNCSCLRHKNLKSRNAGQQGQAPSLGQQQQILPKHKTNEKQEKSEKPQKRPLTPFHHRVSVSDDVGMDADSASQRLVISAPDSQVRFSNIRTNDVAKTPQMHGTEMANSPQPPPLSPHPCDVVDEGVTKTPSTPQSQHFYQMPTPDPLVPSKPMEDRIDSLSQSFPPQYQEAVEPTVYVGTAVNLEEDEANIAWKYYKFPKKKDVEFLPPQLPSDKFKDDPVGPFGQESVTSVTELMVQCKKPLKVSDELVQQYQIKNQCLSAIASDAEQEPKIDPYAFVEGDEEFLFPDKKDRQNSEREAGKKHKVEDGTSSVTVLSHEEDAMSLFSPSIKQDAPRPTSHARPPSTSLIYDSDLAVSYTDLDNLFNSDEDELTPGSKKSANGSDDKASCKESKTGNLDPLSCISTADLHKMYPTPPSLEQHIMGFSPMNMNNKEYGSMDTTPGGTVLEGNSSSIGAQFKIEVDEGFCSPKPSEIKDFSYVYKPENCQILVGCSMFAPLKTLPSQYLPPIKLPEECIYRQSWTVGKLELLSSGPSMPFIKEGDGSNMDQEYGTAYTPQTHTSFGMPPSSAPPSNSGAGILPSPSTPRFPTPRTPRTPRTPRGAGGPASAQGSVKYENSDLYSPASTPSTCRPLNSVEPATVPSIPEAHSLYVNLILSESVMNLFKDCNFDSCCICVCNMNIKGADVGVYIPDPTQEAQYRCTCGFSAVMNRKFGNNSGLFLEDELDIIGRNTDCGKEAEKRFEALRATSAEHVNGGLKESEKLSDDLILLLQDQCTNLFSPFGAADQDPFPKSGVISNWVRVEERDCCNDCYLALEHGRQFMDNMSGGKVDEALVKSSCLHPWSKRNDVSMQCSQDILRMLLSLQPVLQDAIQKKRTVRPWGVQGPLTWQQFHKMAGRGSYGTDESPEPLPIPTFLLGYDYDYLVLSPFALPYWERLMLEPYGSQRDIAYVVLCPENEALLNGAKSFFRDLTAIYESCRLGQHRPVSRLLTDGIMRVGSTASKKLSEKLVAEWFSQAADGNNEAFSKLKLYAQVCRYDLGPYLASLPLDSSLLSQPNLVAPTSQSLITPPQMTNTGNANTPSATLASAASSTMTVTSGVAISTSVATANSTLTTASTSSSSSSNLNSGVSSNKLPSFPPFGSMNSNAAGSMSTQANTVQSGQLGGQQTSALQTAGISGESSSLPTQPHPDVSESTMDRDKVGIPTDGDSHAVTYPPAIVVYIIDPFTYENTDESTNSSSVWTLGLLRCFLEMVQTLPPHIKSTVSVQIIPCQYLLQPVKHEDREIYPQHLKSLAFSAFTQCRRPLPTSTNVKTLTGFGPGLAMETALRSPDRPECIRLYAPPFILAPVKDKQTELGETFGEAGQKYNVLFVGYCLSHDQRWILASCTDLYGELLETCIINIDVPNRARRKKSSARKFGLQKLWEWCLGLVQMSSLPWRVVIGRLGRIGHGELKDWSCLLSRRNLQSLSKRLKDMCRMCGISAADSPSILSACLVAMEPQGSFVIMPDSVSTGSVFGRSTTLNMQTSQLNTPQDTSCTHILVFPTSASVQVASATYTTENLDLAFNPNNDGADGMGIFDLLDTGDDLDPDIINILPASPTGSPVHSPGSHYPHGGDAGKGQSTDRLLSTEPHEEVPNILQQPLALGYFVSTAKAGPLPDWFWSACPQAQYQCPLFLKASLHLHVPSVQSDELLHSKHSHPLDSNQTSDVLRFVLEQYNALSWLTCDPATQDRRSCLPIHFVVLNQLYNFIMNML
UniProt O75128: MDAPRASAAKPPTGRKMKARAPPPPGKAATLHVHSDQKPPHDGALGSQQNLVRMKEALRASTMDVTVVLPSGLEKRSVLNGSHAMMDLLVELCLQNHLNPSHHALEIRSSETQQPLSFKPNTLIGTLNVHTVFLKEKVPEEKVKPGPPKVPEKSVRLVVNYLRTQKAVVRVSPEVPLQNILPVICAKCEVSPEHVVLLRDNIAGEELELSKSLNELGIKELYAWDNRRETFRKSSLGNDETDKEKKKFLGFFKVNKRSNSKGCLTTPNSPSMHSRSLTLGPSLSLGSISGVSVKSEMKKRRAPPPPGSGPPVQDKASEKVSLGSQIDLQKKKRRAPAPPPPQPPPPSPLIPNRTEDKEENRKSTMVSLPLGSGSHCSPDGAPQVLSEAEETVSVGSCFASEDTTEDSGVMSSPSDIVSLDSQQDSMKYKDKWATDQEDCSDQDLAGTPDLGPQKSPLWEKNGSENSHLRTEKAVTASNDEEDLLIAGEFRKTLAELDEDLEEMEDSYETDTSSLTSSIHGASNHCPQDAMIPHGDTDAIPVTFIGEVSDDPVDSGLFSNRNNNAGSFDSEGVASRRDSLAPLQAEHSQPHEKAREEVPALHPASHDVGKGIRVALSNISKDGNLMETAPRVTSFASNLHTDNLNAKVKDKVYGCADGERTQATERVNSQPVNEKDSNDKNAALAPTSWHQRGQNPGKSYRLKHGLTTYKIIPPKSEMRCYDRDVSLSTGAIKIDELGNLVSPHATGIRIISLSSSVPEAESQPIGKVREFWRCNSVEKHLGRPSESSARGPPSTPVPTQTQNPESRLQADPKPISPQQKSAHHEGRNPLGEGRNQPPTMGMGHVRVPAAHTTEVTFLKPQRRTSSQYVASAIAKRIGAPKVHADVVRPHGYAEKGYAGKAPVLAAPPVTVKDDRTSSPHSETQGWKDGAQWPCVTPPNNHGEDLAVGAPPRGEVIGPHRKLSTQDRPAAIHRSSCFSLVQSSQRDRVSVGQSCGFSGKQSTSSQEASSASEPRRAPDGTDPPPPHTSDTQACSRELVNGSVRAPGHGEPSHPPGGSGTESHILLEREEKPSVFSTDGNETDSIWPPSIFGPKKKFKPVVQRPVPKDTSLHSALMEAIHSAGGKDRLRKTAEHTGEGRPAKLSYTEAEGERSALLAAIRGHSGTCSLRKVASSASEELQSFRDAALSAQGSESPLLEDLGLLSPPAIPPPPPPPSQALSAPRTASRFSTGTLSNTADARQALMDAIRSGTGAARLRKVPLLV

Target: APEX2-FUS WT (Twin-Strep-tagged APEX2 fused to wild-type human FUS) (human) (UniProt P35637)
Assay: proximity labelling

Mediator of RNA polymerase II transcription subunit 13 (from UniProt Q9UHV7 1-2174)
binding: binds

Cordon-Bleu WH2 Repeat Protein (from UniProt O75128 1-1261)
binding: binds

B1: Pleckstrin homology-like domain family B member 2 (protein, UniProt Q86SQ0 1-1253)
chain: MEEHSYIQKELDLQNGSLEEDSVVHSVENDSQNMMESLSPKKYSSSLRFKANGDYSGSYLTLSQPVPAKRSPSPLGTSVRSSPSLAKIQGSKQFSYDGTDKNIPMKPPTPLLNTTSSLSGYPLGRADFDHYTGRDSERALRLSEKPPYSKYSSRHKSHDNVYSLGGLEGRKASGSLLAMWNGSSLSDAGPPPISRSGAASMPSSPKQARKMSIQDSLALQPKLTRHKELASENINLRTRKYSSSSLSHMGAYSRSLPRLYRATENQLTPLSLPPRNSLGNSKRTKLGEKDLPHSVIDNDNYLNFSSLSSGALPYKTSASEGNPYVSSTLSVPASPRVARKMLLASTSSCASDDFDQASYVGTNPSHSLLAGESDRVFATRRNFSCGSVEFDEADLESLRQASGTPQPALRERKSSISSISGRDDLMDYHRRQREERLREQEMERLERQRLETILSLCAEYTKPDSRLSTGTTVEDVQKINKELEKLQLSDEESVFEEALMSPDTRYRCHRKDSLPDADLASCGSLSQSSASFFTPRSTRNDELLSDLTRTPPPPSSTFPKASSESSYLSILPKTPEGISEEQRSQELAAMEETRIVILNNLEELKQKIKDINDQMDESFRELDMECALLDGEQKSETTELMKEKEILDHLNRKIAELEKNIVGEKTKEKVKLDAEREKLERLQELYSEQKTQLDNCPESMREQLQQQLKRDADLLDVESKHFEDLEFQQLEHESRLDEEKENLTQQLLREVAEYQRNIVSRKEKISALKKQANHIVQQAQREQDHFVKEKNNLIMMLQREKENLCNLEKKYSSLSGGKGFPVNPNTLKEGYISVNEINEPCGNSTNLSPSTQFPADADAVATEPATAVLASQPQSKEHFRSLEERKKQHKEGLYLSDTLPRKKTTSSISPHFSSATMGRSITPKAHLPLGQSNSCGSVLPPSLAAMAKDSESRRMLRGYNHQQMSEGHRQKSEFYNRTASESNVYLNSFHYPDHSYKDQAFDTLSLDSSDSMETSISACSPDNISSASTSNIARIEEMERLLKQAHAEKTRLLESREREMEAKKRALEEEKRRREILEKRLQEETSQRQKLIEKEVKIRERQRAQARPLTRYLPVRKEDFDLRSHVETAGHNIDTCYHVSITEKTCRGFLIKMGGKIKTWKKRWFVFDRNKRTFSYYADKHETKLKGVIYFQAIEEVYYDHLKNANKSPNPLLTFSVKTHDRIYYMVAPSPEAMRIWMDVIVTGAEGYTHFLL
binding: binds
